PubChem BioAssay AID504804 – Drosophila RNAi Screening Center | 2011

Screen: 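Fly genes whose loss lessens doxorubicin-driven cell death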 (primary screen)
System: Drosophila Kc cells
Knock-down reagent: long dsRNA against Drosophila genes, 0.5 µg dsRNA per well
Duration: 96 h (48 h knock-down, then 48 h drug)
Conditions: doxorubicin 5 µg/ml for 48 h, added 48 h after dsRNA
Read-out: 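Luminescent ATP counts per replicate, not normalised, reflecting viable cells after 48 h dsRNA knock-down followed by 48 h of 5 µg/ml doxorubicin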
Scale: raw ATP luminescence: higher = more viable cells, protection from doxorubicin
Hit rule: 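Active when both duplicate wells lie at least 2 SD above the plate mean and protection is confirmed by rescreening and independent dsRNAs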
The screen tested about 19,000 reagents; below is a random part of those that have a named target and a result. Of all reagents, 47 (0.25%) are marked active. 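Signals are raw, not normalised; exact z-scores behind calls not deposited; actives needed confirmation, so some wells reaching 2 SD are inactive.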

For aurB [DRSC03548], the entry reads raw ATP luminescence, replicate 1 = 98307; raw ATP luminescence, replicate 2 = 61467; inactive.
Against CG5122 [DRSC02816] the deposit lists raw ATP luminescence, replicate 1 = 68893; raw ATP luminescence, replicate 2 = 92733; inactive.
For Prosbeta5R1 [DRSC04581], the entry reads raw ATP luminescence, replicate 1 = 19030; raw ATP luminescence, replicate 2 = 40373; inactive.
After knock-down of CG5412 [DRSC15796], the screen gave raw ATP luminescence, replicate 1 = 39950; raw ATP luminescence, replicate 2 = 50927; inactive.
CG7607 [DRSC10889] scored raw ATP luminescence, replicate 1 = 64967; raw ATP luminescence, replicate 2 = 65280; inactive.
Depletion of Tnpo [DRSC11309] resulted in: raw ATP luminescence, replicate 1 = 29077; raw ATP luminescence, replicate 2 = 29297; inactive.
With knock-down of imd [DRSC05928] the results were raw ATP luminescence, replicate 1 = 56940; raw ATP luminescence, replicate 2 = 66257; inactive.
dap [DRSC07601] showed raw ATP luminescence, replicate 1 = 71663; raw ATP luminescence, replicate 2 = 52713; inactive.
Against CG13032 [DRSC09912] the deposit lists raw ATP luminescence, replicate 1 = 88893; raw ATP luminescence, replicate 2 = 76743; inactive.
Knock-down of CAP [DRSC05215] resulted in: raw ATP luminescence, replicate 1 = 72207; raw ATP luminescence, replicate 2 = 94940; inactive.
Depletion of CAP [DRSC06743] gave: raw ATP luminescence, replicate 1 = 78813; raw ATP luminescence, replicate 2 = 48847; inactive.
CAP [DRSC06744] showed raw ATP luminescence, replicate 1 = 32670; raw ATP luminescence, replicate 2 = 64893; inactive.
Depletion of CAP [DRSC06745] resulted in: raw ATP luminescence, replicate 1 = 40963; raw ATP luminescence, replicate 2 = 58593; inactive.
After knock-down of CAP [DRSC06846], the screen gave raw ATP luminescence, replicate 1 = 48603; raw ATP luminescence, replicate 2 = 79060; inactive.
For Atg18a [DRSC10943] the deposit lists raw ATP luminescence, replicate 1 = 37463; raw ATP luminescence, replicate 2 = 44917; inactive.
TwdlF [DRSC12225] scored raw ATP luminescence, replicate 1 = 32517; raw ATP luminescence, replicate 2 = 25530; inactive.
Against mag [DRSC11787], the entry reads raw ATP luminescence, replicate 1 = 26473; raw ATP luminescence, replicate 2 = 21650; inactive.
RpL10Aa [DRSC15518] gave raw ATP luminescence, replicate 1 = 56860; raw ATP luminescence, replicate 2 = 52290; inactive.
Silencing of CG6154 [DRSC15977] came out at: raw ATP luminescence, replicate 1 = 65050; raw ATP luminescence, replicate 2 = 68660; inactive.
For CG9396 [DRSC16487], the values are raw ATP luminescence, replicate 1 = 64140; raw ATP luminescence, replicate 2 = 60737; inactive.
Depletion of ATPsynCF6 [DRSC14092] came out at: raw ATP luminescence, replicate 1 = 65290; raw ATP luminescence, replicate 2 = 52090; inactive.
CG31404 [DRSC15497] showed raw ATP luminescence, replicate 1 = 57680; raw ATP luminescence, replicate 2 = 86070; inactive.
With knock-down of Als2 [DRSC11806], the record shows raw ATP luminescence, replicate 1 = 18453; raw ATP luminescence, replicate 2 = 15423; inactive.
For CG14314 [DRSC14793], the entry reads raw ATP luminescence, replicate 1 = 65250; raw ATP luminescence, replicate 2 = 88820; inactive.

5 neighbouring records from above:
Atg18a [DRSC10943] → raw ATP luminescence, replicate 1: 37463; raw ATP luminescence, replicate 2: 44917; Call: inactive
TwdlF [DRSC12225] → raw ATP luminescence, replicate 1: 32517; raw ATP luminescence, replicate 2: 25530; Call: inactive
mag [DRSC11787] → raw ATP luminescence, replicate 1: 26473; raw ATP luminescence, replicate 2: 21650; Call: inactive
RpL10Aa [DRSC15518] → raw ATP luminescence, replicate 1: 56860; raw ATP luminescence, replicate 2: 52290; Call: inactive
CG6154 [DRSC15977] → raw ATP luminescence, replicate 1: 65050; raw ATP luminescence, replicate 2: 68660; Call: inactive

Additional results follow:
Against CG42675 [DRSC12157] the deposit lists raw ATP luminescence, replicate 1 = 48933; raw ATP luminescence, replicate 2 = 31207; inactive.
Cyp308a1 [DRSC20238] showed raw ATP luminescence, replicate 1 = 2.36e5; raw ATP luminescence, replicate 2 = 2.64e5; inactive.
Against t-Grip128 [DRSC07853], the values are raw ATP luminescence, replicate 1 = 1.53e5; raw ATP luminescence, replicate 2 = 1.58e5; inactive.
For SP [DRSC09664], the entry reads raw ATP luminescence, replicate 1 = 73590; raw ATP luminescence, replicate 2 = 75217; inactive.
Against Glut3 [DRSC16681] the deposit lists raw ATP luminescence, replicate 1 = 56830; raw ATP luminescence, replicate 2 = 64550; inactive.
Against tmod [DRSC13993], the values are raw ATP luminescence, replicate 1 = 2.88e5; raw ATP luminescence, replicate 2 = 2.61e5; inactive.
With knock-down of tmod [DRSC14314], the record shows raw ATP luminescence, replicate 1 = 49060; raw ATP luminescence, replicate 2 = 40270; inactive.
Depletion of tmod [DRSC15076] gave: raw ATP luminescence, replicate 1 = 72180; raw ATP luminescence, replicate 2 = 46100; inactive.
Depletion of CG2991 [DRSC00559] resulted in: raw ATP luminescence, replicate 1 = 1.18e5; raw ATP luminescence, replicate 2 = 82317; inactive.
Depletion of SA1 [DRSC03424] resulted in: raw ATP luminescence, replicate 1 = 96850; raw ATP luminescence, replicate 2 = 56767; inactive.
CR18166 [DRSC17260] gave raw ATP luminescence, replicate 1 = 2.10e5; raw ATP luminescence, replicate 2 = 2.12e5; inactive.
For CR18166 [DRSC18147] the deposit lists raw ATP luminescence, replicate 1 = 44870; raw ATP luminescence, replicate 2 = 54760; inactive.
